The list does not hold the whole screen: it covers a few groups of compounds. Other doses and runs of a compound may be missing. T/C: endpoint of the treated group in % of that of the vehicle group. Schedule codes are those of the source, read here as Q, the interval in days (D) or hours (H), X, the number of doses. Some doses were run more than once; the results are listed from low to high. Some T/C values carry the count of animals alive at the toxicity check; without a count or a note in brackets, all were alive then. Some doses have a count of surviving animals in place of a T/C: the source holds a T/C of zero for them, seemingly a mark for toxic or unscored doses. Counts of survivors are from the toxicity check, whose day is not always given; animals may have died later.
Tested on: B6C3F1 mice, colon carcinoma 38 s.c., T/C
Experiment: NCI In Vivo Anticancer Drug Screen. Data for tumor model Colon Carcinoma 38 (subcutaneous) in B6C3F1 mice
Conditions: T/C endpoint: median tumor weight (est.), schedule: Q07DX002 (ip), higher T/C = larger tumour; for T/C: evaluated on day 20
Procedure: The antitumor activity of compounds was measured in mice bearing transplantable tumors. Survival or tumor size were measured and the results are expressed as the measurement made in the treated group (T) divided by the measurement made in the vehicle treated control group (C). The tumor model used in this assay is Colon Carcinoma 38 (subcutaneous) in B6C3F1 mice

## NC(=O)c1[nH]cnc1/N=N\N(CCCl)CCCl
dose: 31.25 mg/kg/injection, vehicle: saline with Tween-80
  T/C: 40 % of control
dose: 62.5 mg/kg/injection, vehicle: saline with Tween-80
  T/C: 52 and 79 % of control
dose: 125.0 mg/kg/injection, vehicle: saline with Tween-80
  T/C: 52 and 56 % of control
dose: 250.0 mg/kg/injection, vehicle: saline with Tween-80
  T/C: 12 [9 of 10 alive on day 20] and 27 % of control [9 of 10 alive on day 20]
dose: 500.0 mg/kg/injection, vehicle: saline with Tween-80
  survivor count: 1 of 10 on day 20 and 3 of 10 on day 20

## ClC1CSC1
dose: 50.0 mg/kg/injection, vehicle: saline with Tween-80
  T/C: 126 % of control [8 of 10 alive on day 20]
dose: 100.0 mg/kg/injection, vehicle: saline with Tween-80
  T/C: 86 % of control
dose: 200.0 mg/kg/injection, vehicle: saline with Tween-80
  T/C: 81 % of control
dose: 400.0 mg/kg/injection, vehicle: saline with Tween-80
  survivor count: 0 of 10 on day 20
dose: 800.0 mg/kg/injection, vehicle: saline with Tween-80
  survivor count: 0 of 10 on day 20

## CCN(CC)CCOC(=O)C(O)(c1cccc(OC)c1OC)c1cccc(OC)c1OC
dose: 20.0 mg/kg/injection, vehicle: Klucel (hydroxypropylcellulose) (HPC)
  T/C: 112 % of control

From PubChem BioAssay AID214 (DTP/NCI, 2004)
